Source: doi:10.1371/journal.pone.0140310, primary screening data, rounded.

Every entry is a combination with PF-562271 at 0.4 µM: CN(c1ncccc1CNc1nc(Nc2ccc3c(c2)CC(=O)N3)ncc1C(F)(F)F)S(C)(=O)=O

Compounds and concentrations:
vatalanib, 10 µM: Clc1ccc(Nc2nnc(Cc3ccncc3)c3ccccc23)cc1
pioglitazone, 10 µM: CCc1ccc(CCOc2ccc(CC3SC(=O)NC3=O)cc2)nc1 (stereo not drawn)
SNS-314, 0.004 µM: O=C(Nc1cccc(Cl)c1)Nc1ncc(CCNc2ncnc3ccsc23)s1
SNS-032, 0.05 µM: CC(C)(C)c1cnc(CSc2cnc(NC(=O)C3CCNCC3)s2)o1
FK866, 0.05 µM: O=C(/C=C/c1cccnc1)NCCCCC1CCN(C(=O)c2ccccc2)CC1
tipifarnib, 0.05 µM: Cn1cncc1[C@@](N)(c1ccc(Cl)cc1)c1ccc2c(c1)c(-c1cccc(Cl)c1)cc(=O)n2C
midostaurin, 0.4 µM: CO[C@@H]1[C@H](N(C)C(=O)c2ccccc2)C[C@H]2O[C@]1(C)n1c3ccccc3c3c4c(c5c6ccccc6n2c5c31)C(=O)NC4
NVP-TAE684, 0.4 µM: COc1cc(N2CCC(N3CCN(C)CC3)CC2)ccc1Nc1ncc(Cl)c(Nc2ccccc2S(=O)(=O)C(C)C)n1
VX-702, 2 µM: NC(=O)c1ccc(N(C(N)=O)c2c(F)cccc2F)nc1-c1ccc(F)cc1F
tamatinib, 2 µM: COc1cc(Nc2ncc(F)c(Nc3ccc4c(n3)NC(=O)C(C)(C)O4)n2)cc(OC)c1OC
vismodegib, 5 µM: CS(=O)(=O)c1ccc(C(=O)Nc2ccc(Cl)c(-c3ccccn3)c2)c(Cl)c1
lenalidomide, 5 µM: Nc1cccc2c1CN(C1CCC(=O)NC1=O)C2=O (stereo not drawn)
ENMD-2076, 0.2 µM: Cc1cc(Nc2cc(N3CCN(C)CC3)nc(/C=C/c3ccccc3)n2)n[nH]1
crizotinib, 1 µM: C[C@@H](Oc1cc(-c2cnn(C3CCNCC3)c2)cnc1N)c1c(Cl)ccc(F)c1Cl
OSU-03012, 5 µM: NCC(=O)Nc1ccc(-n2nc(C(F)(F)F)cc2-c2ccc3c(ccc4ccccc43)c2)cc1
XAV939, 10 µM: Oc1nc(-c2ccc(C(F)(F)F)cc2)nc2c1CSCC2
stibogluconate, 10 µM: O=C(O)[C@@H]1[O][Sb](=[O])([O][Sb]2(=[O])[O][C@H]([C@H](O)CO)[C@H](O)[C@H](C(=O)O)[O]2)[O][C@H]([C@H](O)CO)[C@@H]1O (stereo partly drawn)
bortezomib, 0.005 µM: CC(C)C[C@H](NC(=O)[C@H](Cc1ccccc1)NC(=O)c1cnccn1)B(O)O
cediranib, 2 µM: COc1cc2c(Oc3ccc4[nH]c(C)cc4c3F)ncnc2cc1OCCCN1CCCC1
pazopanib, 2 µM: Cc1ccc(Nc2nccc(N(C)c3ccc4c(C)n(C)nc4c3)n2)cc1S(N)(=O)=O

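The test systems are human melanoma cell lines, treated with two drugs together for 72 h and then stained and imaged. Each value is the count of nuclei relative to DMSO-treated wells, in %, so that 100 equals the control. Every drug was used at one fixed concentration, the higher of two screened. These are primary screening values without error estimates.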
This is part of the screen, not chosen by result.

| Second drug | C32 | WM3619 | COLO 800 | WM451Lu | COLO 792 |
|---|---|---|---|---|---|
| vatalanib | 60.0 | 66.3 | 65.2 | 56.3 | 43.0 |
| XAV939 | 77.4 | 113 | 108 | 73.9 | 84.3 |
| FK866 | 57.4 | 62.0 | 29.2 | 54.9 | 40.2 |
| SNS-032 | 54.6 | 64.3 | 54.1 | 49.3 | 59.0 |
| bortezomib | 16.7 | 2.5 | 48.3 | 25.2 | 36.2 |
| SNS-314 | 57.8 | 64.1 | 35.9 | 37.9 | 35.8 |
| crizotinib | 68.6 | 95.1 | 58.6 | 86.8 | 79.1 |
| midostaurin | 44.8 | 64.0 | 33.2 | 41.5 | 53.7 |
| stibogluconate | 70.6 | 85.9 | 92.0 | 74.6 | 104 |
| VX-702 | 83.2 | 94.2 | 56.2 | 73.4 | 63.4 |
| NVP-TAE684 | 56.3 | 81.9 | 70.2 | 54.5 | 70.7 |
| pazopanib | 71.4 | 77.9 | 118 | 59.4 | 73.5 |
| tamatinib | 69.2 | 41.8 | 44.4 | 51.8 | 29.3 |
| OSU-03012 | 70.9 | 78.7 | 77.7 | 76.7 | 42.4 |
| cediranib | 52.8 | 91.1 | 41.9 | 71.0 | 54.3 |
| ENMD-2076 | 69.3 | 109 | 104 | 89.6 | 59.1 |
| pioglitazone | 75.2 | 74.1 | 95.5 | 75.1 | 75.6 |
| vismodegib | 81.8 | 82.1 | 92.2 | 54.7 | 96.6 |
| tipifarnib | 76.6 | 77.4 | 116 | 60.4 | 71.8 |
| lenalidomide | 61.7 | 117 | 125 | 74.0 | 54.8 |